Laboratory results taken from patent US9732101B2, “Bioreversible boronates for delivery of molecules into cells” (WISCONSIN ALUMNI RESEARCH FOUNDATION, priority 2012, dated 2017).
Some of these results come from one statement about several compounds together.

Test system: K-562 cells
Assay: Cell-proliferation assay, [methyl-3H]thymidine incorporation
Type: cell-based, human
Conditions: 44-h incubation, read-out: IC50, inhibition of K-562 cell proliferation
Protocol: The effect of unmodified and boronated RNase A on the proliferation of K-562 cells was assayed as described in For assays, 5 μL of a solution of the ribonuclease or PBS (control) was added to 95 μL of cells (5.0×10^4 cells/mL). For co-treatment assays with fructose, ribonucleases were first serially diluted at 2× concentration, followed by addition of an equal volume of 2 M fructose in PBS to each ribonuclease dilution, resulting in a 1× ribonuclease dilution as before but now containing 1 M fructose. Then, 5 μL of each dilution was added to cells as above, including a control of PBS containing 1 M fructose. Because 5 μL of samples were added to 95 μL of cells, the final concentration of fructose in each well was 50 mM.
After a 44-h incubation, K-562 cells were treated with [methyl-^3H]thymidine for 4 h, and the incorporation of radioactive thymidine into cellular DNA was quantitated by liquid scintillation counting. The results are shown as the percentage of [methyl-^3H]thymidine incorporated relative to control cells treated with PBS in FIG. 5. […] Values for IC50 were calculated by fitting the curves by nonlinear regression to the equation: y=100%/(1+10^(log(IC^50^)-log [ribonuclease])h), in which y is the total DNA synthesis following the [methyl-^3H]thymidine pulse and h is the slope of the curve.

B1: Unmodified RNase A: Bovine pancreatic ribonuclease, wild-type (Type III-A), from Sigma-Aldrich (protein, UniProt P61823 27-150, looked up)
Ribonuclease pancreatic: KETAAAKFERQHMDSSTSAASSSNYCNQMMKSRNLTKDRCKPVNTFVHESLADVQAVCSQKNVACKNGQTNCYQSYSTMSITDCRETGSSKYPNCAYKTTQANKHIIVACEGNPYVPVHFDASV
B1 was tested, and the IC50 was > 50 µM.
